Reference: PubChem BioAssay AID590 (National Center for Advancing Translational Sciences (NCATS), 2007)
Among all 59,000 compounds or so, about 6,500 (11%) were called active. This list was built around the results that the source calls inconclusive (neither active nor inactive); the mix of calls is not that of the screen. No stated cut-off is given here; in the data, active means max dye-equivalent concentration above about 10 nM; inconclusive means mostly about 1.1 nM to 9.6 nM; inactive means weaker than that.

assay: qHTS Assay for Spectroscopic Profiling in A350 Spectral Region; conditions: Compound autofluorescence, 340/450 nm, Alexa 350 dye-equivalents; stronger effect = higher value

SMILES	max dye-equivalent concentration
COc1ccc(CN(Cc2cc3cc(C)ccc3[nH]c2=O)C(=O)N(C)C)cc1	inconclusive: 2.2 nM
FC(F)(F)c1ccccc1-c1cncnc1NCCc1cnc[nH]1	inactive
O=C1CCC(=O)N1c1nc2nc(-c3ccccc3)cc(-c3ccccc3)n2n1	inconclusive: 5.4 nM
COc1ccc(NC(=O)N2CC(C)OC(C)C2)cc1OC (centres undefined)	inconclusive: 3.1 nM
Cc1cc(C(F)(F)F)c2c(C)nn(CCc3nn[nH]n3)c2n1	inconclusive: 1.2 nM
O=C(O)c1ccccc1COc1ccccc1Cl	inactive
Cc1cc(N(C)C)c(C#N)c(N2CCCCC2)n1	inconclusive: 3.5 nM
COC(=O)c1oc2ccc(Br)cc2c1NC(=O)c1ccccc1	active: 11 nM
Clc1ccc(-c2nn3c(-c4ccccn4)nnc3s2)c(Cl)c1	inconclusive: 2.7 nM
Nc1nc(NC(=O)c2cccc(S(=O)(=O)N3CCCCCC3)c2)nc(-c2ccccc2)n1	inactive
CCc1nnc(NC(=O)CSc2nnc(CCc3nc4ccccc4[nH]3)n2C)s1	inconclusive: 3.8 nM
O=c1cc(CN2CCC3(CC2)OCCO3)c2c(ccc3ccccc32)o1	active: 15 nM
CCOC(=O)c1ccc(Nc2cc(C)nc3ncnn23)cc1	inconclusive: 1.2 nM
COC(=O)C1CCN(c2nc3ccccc3nc2C(C#N)C(=O)OCC(C)C)CC1 (centres undefined)	inconclusive: 2.6 nM
Cc1nc2c(-c3ccccc3)c(C)[nH]n2c(=O)c1Cl	inconclusive: 2.6 nM
Cc1ccc2nc(NC(=O)c3ccc(Cn4cc(Cl)cn4)o3)sc2c1	active: 31 nM
Cc1cc(NC(=O)c2ccccc2NS(=O)(=O)c2c(C)c(C)cc(C)c2C)no1	active: 73 nM
CCOc1ccc2nc(SCC#N)c(C#N)cc2c1	active: 18 nM
O=c1cc[nH]c2c(C(F)(F)F)cccc12	inconclusive: 2.8 nM
CCN1C(=O)/C(=C\N2CCN(C)CC2)SC1=S	inconclusive: 1.4 nM
COc1ccc2cc1Oc1ccc(cc1)C[C@H]1c3cc(c(OC)cc3CCN1C)Oc1c(OC)c(OC)cc3c1[C@@H](C2)N(C)CC3	inconclusive: 1.9 nM
Cc1onc(-c2c(Cl)cccc2Cl)c1C(=O)NCCN1CCOCC1	inconclusive: 1.1 nM
Cc1noc(C)c1-c1nc(Nc2ccccc2)c2ccccc2n1	inconclusive: 3.7 nM

SMILES	max dye-equivalent concentration
Cc1cccc(-n2cnc3c(c2=O)c2nc4ccccc4nc2n3Cc2ccco2)c1	active: 320 nM
O=C1CCC(C(=O)O)(c2ccccc2)C1 (centres undefined)	inconclusive: 1.9 nM
CCOC(=O)C1=C(CSc2nc(-c3ccncc3)ccc2C#N)OC(N)=C(C#N)C1c1cccnc1 (centres undefined)	inconclusive: 4.2 nM
Cc1[nH]c2ccc(Br)cc2c(=O)c1CN1CCCCC1	inconclusive: 4.7 nM
COc1ccccc1CNc1ccnc(-c2ccccc2OC)n1	inactive
N#CC1=C(N)Oc2n[nH]c(-c3cccs3)c2C1c1ccsc1 (centres undefined)	inactive
CCNc1ncc2nc(-c3cc(F)cc(F)c3)c(=O)n(C[C@H]3CCCO3)c2n1	active: 18 nM
O=c1c(-c2ccc(F)cc2)nc2cnc(Oc3ccccc3)nc2n1Cc1cccs1	inconclusive: 2.4 nM
CC(C(=O)O)c1ccc(-c2ccccc2)c(F)c1 (centres undefined)	inconclusive: 4.4 nM
COc1ccccc1NC(=O)c1cc(S(=O)(=O)N2CCC3(CC2)OCCO3)ccc1F	inconclusive: 1.5 nM
Cc1nc(NC(=O)C2CC3CCCC(C2)C3=O)sc1C (centres undefined)	inactive
CCCN1C2CCCC1CC(NC(=O)c1ccccc1OCC)C2 (centres undefined)	inconclusive: 2.5 nM
COc1ccc(C2=CC(c3ccc(OC)c(OC)c3)n3nnnc3N2)c(OC)c1 (centres undefined)	inconclusive: 1.8 nM
CCOC(=O)N1CCN(S(=O)(=O)c2ccc(C(=O)Nc3nc4ccc(F)cc4s3)cc2)CC1	active: 130 nM
Cc1cccc(NC(=O)Cn2cnc3ccc(S(=O)(=O)N4CCC(C)CC4)cc3c2=O)n1	inconclusive: 9.1 nM
Cc1nn(Cc2ccccc2)c(Cl)c1C(=O)OCc1nnc(-c2ccc(Cl)cc2)o1	inconclusive: 5 nM
COC(=O)C1=C(NC(=O)c2cccs2)CCS1	inactive
Cc1c(C(=O)N2CCN(c3ncccn3)CC2)sc2nc3n(c(=O)c12)CCCC3	inconclusive: 3 nM
COc1ccccc1NC(=O)C1=C(C)NC2=C(C(=O)CCC2)C1c1ccc2c(c1)OCO2 (centres undefined)	active: 31 nM
O=C(CN1C(=O)CC(c2ccccc2)=Nc2ccccc21)NCc1ccco1	inactive
CCOC(=O)N1CCC(NC(=O)Cc2ccc(-n3c(=O)[nH]c4ccccc4c3=O)cc2)CC1	inconclusive: 1.7 nM
CCc1nc(NCC(C)C)c(C#N)c2c1COC(C)(C)C2	active: 13 nM
C[C@@](N)(Cc1ccc(O)c(O)c1)C(=O)O	inconclusive: 2.5 nM

Taken from above.
Entry for Cc1noc(C)c1-c1nc(Nc2ccccc2)c2ccccc2n1 under max dye-equivalent concentration: inconclusive: 3.7 nM
Entry for Cc1[nH]c2ccc(Br)cc2c(=O)c1CN1CCCCC1 under max dye-equivalent concentration: inconclusive: 4.7 nM
Entry for Cc1onc(-c2c(Cl)cccc2Cl)c1C(=O)NCCN1CCOCC1 under max dye-equivalent concentration: inconclusive: 1.1 nM
Entry for Cc1cccc(NC(=O)Cn2cnc3ccc(S(=O)(=O)N4CCC(C)CC4)cc3c2=O)n1 under max dye-equivalent concentration: inconclusive: 9.1 nM

Later entries.

SMILES	max dye-equivalent concentration
CCCCNC(=O)CC1N=C2c3ccccc3N=C(SCC(=O)Nc3ccccc3OC)N2C1=O (centres undefined)	inconclusive: 5.3 nM
COc1ccc(C2(C(=O)NCCCN3CCOCC3)CCOCC2)cc1	inactive
CCc1nc(N2CCOCC2)c(C#N)c2c1CCCC2	active: 71 nM
COc1ccc(C)cc1NC(=O)CSc1nnc(COc2ccc(C)cc2)n1Cc1ccco1	active: 21 nM
CCc1nnc(NC(=O)C2CCCN(c3nc(C)cc(C)n3)C2)s1 (centres undefined)	inactive
CCn1c(=N)c(C(=O)NCCCOC)cc2c(=O)n3cccc(C)c3nc21	active: 20000 nM
Cc1cc(=O)oc(C)c1C(=O)NCCC(C)C	inconclusive: 3.3 nM
COC(=O)CSc1ccccc1C(=O)OC	active: 16 nM
CSc1ncccc1C(=O)OCC(=O)N1CCOCC1	inconclusive: 5.6 nM
COc1ccc(N2C(=O)CCC(C(=O)O)C2c2ccc(F)cc2)cc1 (centres undefined)	inconclusive: 2.1 nM
Cc1nn(C(=O)c2ccco2)c(C)c1CN1C(=O)c2ccccc2C1=O	inconclusive: 1.5 nM
NC(=O)CC1(CC(=O)O)CCCCC1	inconclusive: 4.8 nM
O=C(O)CCc1nn2cc(-c3ccccc3)nc2[nH]c1=O	active: 250 nM
COc1ccc2c(C)nc(Nc3nc(C)cc(C)n3)nc2c1	inconclusive: 3.2 nM
NC(=O)CSc1nc2scc(-c3ccco3)c2c(=O)n1-c1ccccc1	inconclusive: 3.7 nM
OC(CN1C2=NCCN2c2ccccc21)c1ccc(Br)cc1 (centres undefined)	inconclusive: 1.3 nM
Clc1ccc(C2=Nn3c(nnc3-c3n[nH]c4c3CCC4)SC2)cc1	active: 30 nM
CCCCC(=O)Nc1ccc(NC(=O)C2CC2)nc1	inactive
COc1ccc(-c2nnc3ccc(SCC(=O)NCc4ccco4)nn23)cc1	inconclusive: 1.7 nM
COc1cccc(-n2nnnc2SCC(=O)c2cc(OC)ccc2OC)c1	active: 120 nM
COc1ccc(CNC(=O)c2cccc3c2C(=O)N(Cc2cccnc2)C3)cc1	inconclusive: 8.3 nM
c1ccc(C(c2nnnn2C2CCCC2)N2CCCCCC2)nc1 (centres undefined)	inconclusive: 5.8 nM
COc1ccc(-c2cc(O)cc(O)c2)cc1	inactive

SMILES	max dye-equivalent concentration
CC[C@H](CC[C@H](C)[C@@H]1CC[C@@H]2[C@H]3CC=C4C[C@@H](O)CC[C@]4(C)[C@H]3CC[C@]21C)C(C)C	inactive
C=CCCC(=O)Nc1ccc(COC(=O)N2CCOCC2)cc1	inconclusive: 1.4 nM
CCCC(=O)Nc1ccc(-c2nc3cc(C)ccc3o2)cc1	inconclusive: 6.7 nM
O=C(Nc1c(-c2ccccc2)nc2c(Br)cc(Br)cn12)c1ccco1	inactive
CCN(CC)c1nc(N)c2c(N)n(-c3ccccc3C)c(=S)c(C#N)c2c1C#N	inconclusive: 3 nM
CCCc1cc(C(N)=O)c(NC(=O)c2cc(C)on2)s1	active: 12 nM
O=c1c(-c2ccc(Cl)cc2)nc2cnc(N3CCOCC3)nc2n1CCc1ccccc1	inconclusive: 9.8 nM
Cc1noc(C)c1S(=O)(=O)Nc1ccc(C(=O)NC2CCCCC2C)cc1 (centres undefined)	inactive
Cc1ccc(S(=O)(=O)C(C#N)c2nc3ccccc3nc2N2CCCC2)cc1 (centres undefined)	active: 140 nM
CCOC(=O)c1sc(NC(=O)CSc2nnc(C(C)C)n2CC)nc1C	inconclusive: 2.2 nM
Cn1c(=O)cc(OCC(=O)NCCCN2CCN(c3ccccc3F)CC2)c2ccccc21	inactive
CCN(CC)CCCN1C(=O)C(O)=C(C(=O)c2ccco2)C1c1cc(OC)ccc1OC (centres undefined)	inactive
COc1ccc(S(=O)(=O)N2CCCC(C(=O)NCc3ccco3)C2)cc1Cl (centres undefined)	inconclusive: 1.8 nM
CCCN(Cc1cc2cc(OC)ccc2[nH]c1=O)C(=O)c1ccncc1	active: 290 nM
CCOc1cc(-c2nc(-c3ccc(C)nc3OCC)no2)cc(OCC)c1OCC	inconclusive: 1.4 nM
CC(NC(=O)Cc1cccs1)C(c1cccs1)N1CCOCC1 (centres undefined)	inactive
COc1ccc2[nH]c(=O)c(CN(Cc3cccs3)Cc3nnnn3C(C)(C)C)cc2c1	active: 46 nM
Cc1ccc(NC(=O)CS(=O)CC(=O)N(c2ccccc2)C(C)C(=O)NC2CCCC2)cc1 (centres undefined)	inconclusive: 1.2 nM
Cc1ccc(C)c(CSc2nnc(-c3cccnc3)n2N)c1	inconclusive: 1.4 nM
COc1ccccc1CNC(=O)CCCNS(=O)(=O)c1cccc2nsnc12	inconclusive: 3.2 nM
